Primary screen of a compound library

Data taken from ChEMBL document CHEMBL3988442, “University of Dundee, Small-Polar-MMV Screening Library” (2021).

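Viability assay of Plasmodium falciparum sporozoites; the read-out is not stated. The concentration is filed as 10 mM, unlikely as a test dose, so the dose is not known. Direction is inferred from retests: higher values go with lower viability. Strong results were mostly tested again. Of about 34,000 compounds tested this way, about 280 (0.84%) reached 50% or more in at least one test.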

Results are given as percent effect. How 0% and 100% were set is not recorded. Most values in the screen are low, and negative values occur. This is an unselected part of the compounds tested. Two or more numbers in one place are separate tests of the same structure; such repeats can differ widely.

- COc1ccccc1OC1CN(C(=O)C(c2ccccc2F)N(C)C)C1 (configuration not stated) | -8.653%
- Cc1cc(CN(C)C(=O)c2ccnc(N(C)C)c2)no1 | -16.67%
- O=C(C1SCCc2sccc21)N1CCCCC1 (configuration not stated) | -1.207%
- Cc1cc(O)nc(C2CN(CCO)CCO2)n1 (configuration not stated) | 10.81%
- CCS(=O)(=O)c1ccccc1N1CCC(NC(C)=O)CC1 | -0.4177%
- Cc1cn2c(n1)CCC(NC(=O)CNS(C)(=O)=O)C2 (configuration not stated) | -20.34%
- CCC1c2ccsc2CCN1C(=O)NCc1cccnc1N(C)C (configuration not stated) | 14.1%
- Cc1nc(C)n(CC2CCCN2CCOc2ccc(F)cc2)n1 (configuration not stated) | -0.8873%
- CC(O)CN1CCC(CNCc2ccccc2C(F)(F)F)CC1 (configuration not stated) | 5.681%
- CCCn1nccc1-c1cnc(CC2CCN(C(C)=O)C2)cn1 (configuration not stated) | 3.121%
- CN(C)CC1CSCCCN1C(=O)Nc1ccc(C(C)(C)C)cc1 (configuration not stated) | -10.39%
- CC(=O)N1CCCC1C(=O)NCCOc1cc(C)cc(C)c1 (configuration not stated) | -12.76%
- Cc1ccc(CNC(c2ccccc2)c2nccn2C)cc1.Cl (configuration not stated) | 12.06%
- O=C(O)C(F)(F)F.O=C(O)C(F)(F)F.[H][C@]12C[C@@H](CN3CCCC3)N(C)[C@@]1([H])CCN(C(=O)c1cnoc1C)C2 | -7.962%
- CC(C)c1noc(CCCC(=O)N2CCN(Cc3ccccn3)CC2)n1 | 8.291%
- COc1ccc(-c2n[nH]cc2CN(C)Cc2ccoc2)c(F)c1 | -16.76%
- CN(C)C(=O)CN1CCCC1c1nccnc1Nc1ccccn1 (configuration not stated) | -3.467%
- COCCN(C)c1cnn(C)c(=O)c1Br | 7.341%
- CN(Cc1cccnc1)C1CCCN(Cc2noc(C3CC3)n2)C1 (configuration not stated) | -0.9141%
- CC(=O)c1cccc(NC(=O)N(CC(F)F)C2CC2)c1 | -26.47%
- Cc1ccc(CN[C@@H]2COC[C@H]2c2ccc(F)cc2)cc1C.O=C(O)CC(O)(CC(=O)O)C(=O)O | -3.294%
- CCc1ncc2c(n1)CN(CC(=O)Nc1nnc(C)s1)CC2 | -28.92%
- O=C(NCCn1ccnc1)NCC(c1ccco1)N1CCCC1 (configuration not stated) | 5.068%
- Cc1nc(CN2CCCC(N(C)CCCc3ccccc3)C2)no1 (configuration not stated) | 14.5%
- CC(C)CCN1CCN(Cc2nc(C3CC3)no2)CC1 | -8.568%
- Cc1nc2c(c(N3C[C@@H](C)[C@@](C)(O)C3)n1)CCC2 | 4.459%
- COc1c(C2CCCN2Cc2nc(C3CC3)no2)c(C)nn1C (configuration not stated) | -95.04% & 2.557% & -122.8%
- CCCc1nnc(N2CCC3(CCC(=O)N(C)C3)CC2)o1 | -27.35%
- CN(C)c1cccc(C(=O)N2CCCC2c2ncc3c(n2)CCNC3)c1.Cl (configuration not stated) | 10.88%
- Cc1noc(CN2CCN(C(=O)c3ccccn3)CC2)n1 | -8.027%
- COCCN1CCOCC12CCN(c1cnccn1)CC2.O=C(O)C(F)(F)F | -6.48%
- Cc1cncc(C2CCCN(CC3CCC3)C2)n1 (configuration not stated) | 7.029%
- CCc1ccsc1C(=O)N1CCN(CC(O)CC)CC1 (configuration not stated) | -5.689%
- CCn1ncc2c1CCCC2NCc1ccc(OC)c(F)c1 (configuration not stated) | 6.934%
- CCn1c(CN(C)C(C)CSC)nc2c(F)cccc21 (configuration not stated) | -3.893%

Repeated from the top, 4 entries:

For COc1ccccc1OC1CN(C(=O)C(c2ccccc2F)N(C)C)C1 (configuration not stated) the result was -8.653%.
For Cc1cc(CN(C)C(=O)c2ccnc(N(C)C)c2)no1 the result was -16.67%.
For O=C(C1SCCc2sccc21)N1CCCCC1 (configuration not stated) the result was -1.207%.
For Cc1cc(O)nc(C2CN(CCO)CCO2)n1 (configuration not stated) the result was 10.81%.